In PMC5421568:
Positions count from the first letter of the chain named. Results are given in words; binding and its absence hold for the method and conditions named. Some binding calls cover weakened binding; strength is not graded here. Tags and fused reporters may be left off the sequences shown.

Sequences of proteins named here, by UniProt entry; tags and fusion partners are left off.
UniProt P15873: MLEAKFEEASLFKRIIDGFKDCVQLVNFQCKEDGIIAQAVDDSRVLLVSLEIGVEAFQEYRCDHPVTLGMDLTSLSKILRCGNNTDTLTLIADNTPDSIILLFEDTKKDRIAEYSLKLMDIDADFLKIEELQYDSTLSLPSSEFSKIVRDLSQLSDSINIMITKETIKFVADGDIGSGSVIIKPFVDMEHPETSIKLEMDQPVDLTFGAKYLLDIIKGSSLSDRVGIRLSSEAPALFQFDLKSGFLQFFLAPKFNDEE

Key:
Assay in all cases: two-hybrid; yeast two-hybrid; Mcm10-LexA fusion proteins co-expressed with PCNA; beta-galactosidase activity measured in cell extracts, in triplicate from three individual transformants
[1] = molecular target: T1, Mcm10-K372R-LexA fusion protein (S. cerevisiae) (UniProt P32354)
T1 sequence: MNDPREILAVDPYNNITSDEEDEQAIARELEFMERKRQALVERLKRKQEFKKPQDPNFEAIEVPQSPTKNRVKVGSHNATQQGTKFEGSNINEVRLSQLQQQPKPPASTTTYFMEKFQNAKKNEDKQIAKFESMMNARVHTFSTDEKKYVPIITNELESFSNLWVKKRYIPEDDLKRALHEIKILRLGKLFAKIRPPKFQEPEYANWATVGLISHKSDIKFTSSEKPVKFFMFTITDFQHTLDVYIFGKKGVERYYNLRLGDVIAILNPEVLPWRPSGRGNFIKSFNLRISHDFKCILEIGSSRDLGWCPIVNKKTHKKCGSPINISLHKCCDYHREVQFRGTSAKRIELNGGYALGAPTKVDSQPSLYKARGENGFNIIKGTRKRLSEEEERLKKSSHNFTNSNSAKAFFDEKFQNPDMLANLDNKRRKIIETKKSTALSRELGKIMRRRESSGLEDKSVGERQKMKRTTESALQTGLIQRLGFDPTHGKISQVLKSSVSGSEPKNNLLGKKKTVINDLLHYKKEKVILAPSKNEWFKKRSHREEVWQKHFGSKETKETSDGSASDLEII

[2] = molecular target: T2, Mcm10-K85R-LexA fusion protein (S. cerevisiae) (UniProt P32354)
T2 sequence: T1 sequence with K85R, R372K

[3] = molecular target: T3, Mcm10-KK85,372RR-LexA fusion protein (S. cerevisiae) (UniProt P32354)
T3 sequence: T1 sequence with K85R

[4] = molecular target: T4, Mcm10-LexA fusion protein (wild-type Mcm10) (S. cerevisiae) (UniProt P32354)
T4 sequence: T1 sequence with R372K

Measured: binding

proliferating cell nuclear antigen (PCNA) (from UniProt P15873 1-258)
binds: all assays above
